Counter-ions that a name gives are not always drawn. The list shows a part of the results. Repeats in this data set agree poorly, so a single value says little.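 In a drug-repurposing library screen, luminescence reads luciferase driven by eight TEAD-binding elements, stably integrated into human kidney-derived cells. Compounds scoring over five robust Z scores above the plate mean are called hits.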
System: HEK293A TEAD-LUC reporter
Assay: TEAD-luciferase reporter activity (YAP activation), robust Z score vs plate; higher = stronger YAP/TEAD activation
Settings: 24 h

| SMILES | TEAD-luciferase reporter activity (compound concentration: 200 nM) | TEAD-luciferase reporter activity (compound concentration: 2 uM) | TEAD-luciferase reporter activity (compound concentration: 10 uM) |
| --- | --- | --- | --- |
| Cc1cccc(C)c1NC(=O)C1CCCCN1CCO (centres undefined) [droxicainide] | active: 7.9 | inactive: -0.26 | inactive: -0.964 |
| C[C@H](NC(=O)C(C)(C)Oc1ccc(C(F)(F)F)cn1)[C@@H](Cc1ccc(Cl)cc1)c1cccc(C#N)c1 [Taranabant] | inactive: 3.98 | inactive: -0.559 | inactive: -1.14 |
| C[C@]1(C(=O)N2CCOCC2)CO[C@H](c2nc(-c3ccncc3)c(-c3ccc(F)cc3)[nH]2)OC1 | inactive: 0.649 | inactive: -1.05 | inactive: -1.35 |
| O=CN1CCC(C(=O)NCCN2CCC(=C3c4ccccc4C=Cc4ccccc43)CC2)CC1 | inactive: 0.73 | inactive: -1.78 | inactive: -0.809 |
| O=C(N[C@@H]1CC[C@@H](c2cccc(F)c2F)CN(CC(F)(F)F)C1=O)N1CCC(n2c(=O)[nH]c3ncccc32)CC1 [telcagepant] |  | inactive: 0.387 |  |
| O=C(N[C@@H]1CC[C@@H](c2cccc(F)c2F)CN(CC(F)(F)F)C1=O)N1CCC(n2c(=O)[nH]c3ncccc32)CC1 | inactive: -2.35 |  | inactive: -0.42 |
| CCCCCOc1ccc(-c2cc(-c3ccc(C(=O)N[C@H]4C[C@@H](O)[C@@H](O)NC(=O)[C@@H]5[C@@H](O)[C@@H](C)CN5C(=O)[C@H]([C@H](O)CC(N)=O)NC(=O)[C@H]([C@H](O)[C@@H](O)c5ccc(O)c(OS(=O)(=O)O)c5)NC(=O)[C@@H]5C[C@@H](O)CN5C(=O)C([C@@H](C)O)NC4=O)cc3)no2)cc1 (some centres undefined) [Micafungin Sodium] |  | inactive: -0.732 |  |
| CCCCCOc1ccc(-c2cc(-c3ccc(C(=O)N[C@H]4C[C@@H](O)[C@@H](O)NC(=O)[C@@H]5[C@@H](O)[C@@H](C)CN5C(=O)[C@H]([C@H](O)CC(N)=O)NC(=O)[C@H]([C@H](O)[C@@H](O)c5ccc(O)c(OS(=O)(=O)O)c5)NC(=O)[C@@H]5C[C@@H](O)CN5C(=O)C([C@@H](C)O)NC4=O)cc3)no2)cc1 (some centres undefined) [Micafungin] | inactive: -0.726 |  | inactive: 3.01 |
| CO[C@@H]1[C@H](N(C)C(=O)c2ccccc2)C[C@H]2O[C@]1(C)n1c3ccccc3c3c4c(c5c6ccccc6n2c5c31)C(=O)NC4 [Midostaurin] |  | inactive: 0.86 |  |
| CO[C@@H]1[C@H](N(C)C(=O)c2ccccc2)C[C@H]2O[C@]1(C)n1c3ccccc3c3c4c(c5c6ccccc6n2c5c31)C(=O)NC4 | inactive: 2.53 |  | inactive: -0.743 |
| Cc1oc(=O)oc1COC(=O)C1=C([C@H]2CCCO2)S[C@@H]2[C@@H]([C@@H](C)O)C(=O)N12 [Faropenem daloxate] | inactive: 1.14 | inactive: -1.2 | inactive: 0.118 |
| COc1cc(O)c2c(=O)oc(CO)cc2c1 [Cytogenin] | inactive: -1.06 | inactive: -0.0905 | inactive: -0.681 |
| Cc1ccccc1CC(=O)Nc1cc(C)c(S(=O)(=O)C[N+](=O)[O-])c(C)c1 | inactive: -1.6 | inactive: 0.205 | inactive: -0.291 |
| C[C@]12CCC(=O)C=C1CC[C@@H]1[C@@H]2[C@@H](O)C[C@@]2(C)[C@H]1CC[C@]2(O)C(=O)COC(=O)COc1nn(Cc2ccccc2)c2ccccc12 | inactive: -0.723 | inactive: 0.93 | inactive: 1.96 |
| CCCCc1oc2ccccc2c1C(=O)c1ccc(OCCN(CC)CC)s1 | inactive: -0.415 | inactive: 0.567 | inactive: -0.28 |
| CC(=O)Nc1ccc(C2=NNC(=O)C[C@H]2C)cc1 | inactive: 0.214 | inactive: -0.916 | inactive: 0.558 |
| COc1cc(N)c(Cl)cc1C(=O)NCC1CCN(CCCn2ccnn2)CC1 | inactive: -1.49 | inactive: 1.44 | inactive: 1.05 |
| CN1CCN(C2=Cc3cc(Cl)ccc3/C(=C/C#N)c3ccccc32)CC1 [rilapine] | inactive: -1.21 | inactive: -0.0937 | inactive: -1.69 |
| COc1cccc(Oc2c(NS(=O)(=O)c3ccc(C(C)(C)C)cc3)ncnc2OCCO)c1 | inactive: -3.1 | inactive: 0.0934 | inactive: 4.03 |
| CC1(C)Oc2ccc(S(=O)(=O)c3ccccc3)cc2[C@H](N2CCCC2=O)[C@H]1O | inactive: -0.28 | inactive: -0.414 | inactive: 0.273 |
| CC(C)CCC[C@@H](C)C1CCC2C3CCC4=C/C(=N/O)CC[C@]4(C)C3CC[C@@]21C (some centres undefined) [Olesoxime] |  | inactive: -1.57 | inactive: -1.73 |
| CC1=C(/C=C/C(C)=C/C=C/C(C)=C/C(=O)OCC(=O)C(C)(C)C)C(C)(C)CCC1 | inactive: 4.82 | inactive: -0.087 | inactive: 1.59 |
| CC(C)[N+]1(C)C2CCC1CC(OC(=O)C(CO)c1ccccc1)C2 (centres undefined) [Ipratropium Bromide] | inactive: -1.59 |  | inactive: -0.61 |
| CC(C)[N+]1(C)C2CCC1CC(OC(=O)C(CO)c1ccccc1)C2 (centres undefined) [ipratropium bromide, Premaire] |  | inactive: 2.37 |  |
| NC(=O)CC(=O)Nc1ccc(OCc2cccc(F)c2)cc1 | inactive: 0.0884 | inactive: 0.581 | inactive: -1.18 |

| SMILES | TEAD-luciferase reporter activity (compound concentration: 200 nM) | TEAD-luciferase reporter activity (compound concentration: 2 uM) | TEAD-luciferase reporter activity (compound concentration: 10 uM) |
| --- | --- | --- | --- |
| CC(C)S(=O)(=O)N[C@H]1Cc2ccc(-c3ccc(F)nc3)cc2C1 | inactive: -1.29 | inactive: -0.149 | inactive: -0.418 |
| COc1ccc(N2CCN(C(=O)CC(OC(N)=O)c3ccccc3)CC2)cc1OC (centres undefined) | inactive: 1.93 | inactive: -0.41 | inactive: -0.616 |
| O=c1cc(-c2nnn[nH]2)oc2c(/C=C/c3ccc(OCCCCc4ccccc4)cc3)cccc12 | inactive: -1.59 | inactive: -0.27 | inactive: 1.61 |
| CCS(=O)(=O)C(F)(F)[C@](O)(Cn1cncn1)c1ccc(F)cc1F | inactive: 0.922 |  | inactive: 0.59 |
| CNS(=O)(=O)c1ccc(Oc2ccc(SC)cc2)c(CN(C)C)c1 | inactive: -0.00577 | inactive: -1.39 | inactive: 0.701 |
| N=C(N)NCCC[C@@H](N)C(=O)N[C@@H](CCCNC(=N)N)C(=O)N1CCC[C@H]1C(=O)N1C[C@H](O)C[C@H]1C(=O)NCC(=O)N[C@@H](Cc1ccccc1)C(=O)N[C@@H](CO)C(=O)N[C@H](Cc1ccccc1)C(=O)N[C@@H](Cc1ccccc1)C(=O)N[C@@H](CCCNC(=N)N)C(=O)O | inactive: -1.21 | inactive: -0.297 | inactive: 3.06 |
| Cc1cc(NC(=O)C2C(=O)c3ccccc3S(=O)(=O)N2C)no1 (centres undefined) [isoxicam] | inactive: -0.213 | inactive: 0.564 | inactive: 0.975 |
| CSc1ccc(CN2CCCC(Nc3ccc4[nH]ncc4c3)C2)cc1 (centres undefined) | inactive: 0.698 | inactive: 1.19 | inactive: 1.59 |
| CN1C2=CC(=O)/C(=N/NC(N)=O)C=C2CC1S(=O)(=O)O (centres undefined) [Carbazochrome sodium sulfonate] | inactive: 2.76 | inactive: 0.385 | inactive: 1.27 |
| OCC1OC(n2cnc3c(NCCc4ccccc4)ncnc32)C(O)C1O (centres undefined) | inactive: 0.0453 | inactive: 0.683 | inactive: -0.606 |
| Cc1ccc(=O)n(-c2ccc(O)cc2)c1 | inactive: -0.635 | inactive: -1.89 | inactive: 0.3 |
| CCCCCc1cccc(CC(=O)[O-])c1 | inactive: -1.28 | inactive: -0.408 | inactive: 0.171 |
| O=C([O-])CN(CCN(CC(=O)[O-])CC(=O)[O-])CC(=O)[O-] [Edetate calcium disodium] | inactive: 3.15 | inactive: 0.394 | inactive: 1.66 |
| CCOC(=O)OC(C)OC(=O)CNC(=O)[C@@H](CSSC[C@@H](N)CCSC)Cc1ccccc1 (some centres undefined) | inactive: -0.512 | inactive: 0.225 | inactive: -1.24 |
| CCCCCCCCC1OC(=O)c2ccccc21 (centres undefined) | inactive: 0.797 | inactive: -1.42 | inactive: -1.16 |
| O=C(O)Cn1c(=O)n(Cc2ccc(Br)cc2F)c(=O)c2ccc(Cl)cc21 [Zenarestat] | inactive: -0.949 | inactive: 0.182 | inactive: 2.11 |
| CNC(=O)[C@H]1O[C@@H](n2cnc3c(NCc4cccc(I)c4)ncnc32)[C@H](O)[C@@H]1O | inactive: -1.47 | inactive: 0.409 | inactive: -0.906 |
| CN(C)C[C@@H]1CCn2cc(c3ccccc32)C2=C(C(=O)NC2=O)c2cn(c3ccccc23)CCO1 | inactive: 1.04 | inactive: 0.101 | inactive: 2.2 |
| Nc1ccc(C(=O)N2CCc3cc(S(=O)(=O)N4C[C@H](c5ccccc5)NC4=O)ccc32)cc1 | inactive: -0.582 | inactive: 3.97 | active: 8.5 |
| COc1nc(N)nc2c1ncn2[C@@H]1O[C@H](CO)[C@@H](O)[C@@H]1O [nelarabine] | inactive: -0.384 | inactive: -1.16 | inactive: 0.155 |
| CO/N=C(\C(=O)NC1C(=O)N2C(C(=O)O)=C(COC(C)=O)CSC12)c1csc(N)n1 (centres undefined) [cefotaxime salt] |  | inactive: 1.12 |  |
| CO/N=C(\C(=O)NC1C(=O)N2C(C(=O)O)=C(COC(C)=O)CSC12)c1csc(N)n1 (centres undefined) [cefotaxime salt, delayed] | inactive: -0.418 |  | inactive: -0.936 |
| CCC(C)C(C(=O)O)n1sc2ccccc2c1=O (centres undefined) | inactive: 0.0213 | inactive: -0.751 | inactive: 3.39 |
| Cc1ccc(C(=O)NC2CCN(c3ccc4ncc(-c5cccc(C(F)(F)F)c5)n4n3)CC2)cc1 | inactive: -1.64 |  | inactive: 1.38 |

Given tab-delimited: entries from further up
SMILES	TEAD-luciferase reporter activity (compound concentration: 200 nM)	TEAD-luciferase reporter activity (compound concentration: 2 uM)	TEAD-luciferase reporter activity (compound concentration: 10 uM)
O=C([O-])CN(CCN(CC(=O)[O-])CC(=O)[O-])CC(=O)[O-] [Edetate calcium disodium]	inactive: 3.15	inactive: 0.394	inactive: 1.66
CCOC(=O)OC(C)OC(=O)CNC(=O)[C@@H](CSSC[C@@H](N)CCSC)Cc1ccccc1 (some centres undefined)	inactive: -0.512	inactive: 0.225	inactive: -1.24
CCCCCCCCC1OC(=O)c2ccccc21 (centres undefined)	inactive: 0.797	inactive: -1.42	inactive: -1.16
